No constants are given. Whether binding was seen depends on the method and setting. Some binding calls cover weakened binding; strength is not graded here.

Here are results for one molecule from article PMC7337905, “Nitrosative stress inhibits aminoacylation and editing activities of mitochondrial threonyl-tRNA synthetase by S-nitrosation” (Nucleic Acids Research, 2020).

This assay has as its target human mitochondrial threonyl-tRNA synthetase, mature form (human) (UniProt Q9BW92). The assay is described as follows: SEC; gel filtration of purified hmtThrRS in the absence or presence of GSNO; column and buffer not stated; both purified. Background: Size exclusion chromatography separates by hydrodynamic size, large species first.

B1: human mitochondrial threonyl-tRNA synthetase, mature form (enzyme, UniProt Q9BW92 20-718)
chain: LHTAVVSTPPRWLAERLGLFEELWAAQVKRLASMAQKEPRTIKISLPGGQKIDAVAWNTTPYQLARQISSTLADTAVAAQVNGEPYDLERPLETDSDLRFLTFDSPEGKAVFWHSSTHVLGAAAEQFLGAVLCRGPSTEYGFYHDFFLGKERTIRGSELPVLERICQELTAAARPFRRLEASRDQLRQLFKDNPFKLHLIEEKVTGPTATVYGCGTLVDLCQGPHLRHTGQIGGLKLLSNSSSLWRSSGAPETLQRVSGISFPTTELLRVWEAWREEAELRDHRRIGKEQELFFFHELSPGSCFFLPRGTRVYNALVAFIRAEYAHRGFSEVKTPTLFSTKLWEQSGHWEHYQEDMFAVQPPGSDRPPSSQSDDSTRHITDTLALKPMNCPAHCLMFAHRPRSWRELPLRLADFGALHRAEASGGLGGLTRLRCFQQDDAHIFCTTDQLEAEIQSCLDFLRSVYAVLGFSFRLALSTRPSGFLGDPCLWDQAEQVLKQALKEFGEPWDLNSGDGAFYGPKIDVHLHDALGRPHQCGTIQLDFQLPLRFDLQYKGQAGALERPVLIHRAVLGSVERLLGVLAESCGGKWPLWLSPFQVVVIPVGSEQEEYAKEAQQSLRAAGLVSDLDADSGLTLSRRIRRAQLAHYNFQFVVGQKEQSKRTVNIRTRDNRRLGEWDLPEAVQRLVELQNTRVPNAEEIF
On to B1, for which the binding result is “binds”.
